Experimental findings from publication PMC7846742 are described below.

Sequences of proteins named here, by UniProt entry; tags and fusion partners are left off. A change or cut given only in a name is not applied to a line headed by its entry.
UniProt P54368: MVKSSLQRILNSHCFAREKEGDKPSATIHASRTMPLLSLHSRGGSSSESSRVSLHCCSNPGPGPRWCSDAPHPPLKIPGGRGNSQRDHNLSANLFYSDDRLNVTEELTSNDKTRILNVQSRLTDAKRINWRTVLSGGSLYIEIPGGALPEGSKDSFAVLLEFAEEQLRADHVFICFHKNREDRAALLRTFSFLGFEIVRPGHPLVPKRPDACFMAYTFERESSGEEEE

These are yes or no findings as the source states them, for the method shown. Some binding calls cover weakened binding; strength is not graded here. Where a sequence is shown, tags or fusion partners need not be part of it.

In assay [1] the target is AviTag-OAZ(K153A,A215R)-GSY-SPM (human | Neisseria meningitidis serogroup B (strain MC58)) (UniProt P54368). Nature of the assay: cross-linking; NeissLock: Ca2+-induced aspartic anhydride on OAZ reacts with the docked partner; purified proteins mixed at 10 µM each or as indicated (AZI 2.5 µM each; Fig. 4b 0.5 µM each; 30 µM ODC with 10 µM OAZ-Y-SPM), 37 °C, HBS pH 7.4 with 2 mM TCEP, 10 mM CaCl2 unless varied (pH 6.5-8.5, 0.5-10 mM Ca2+, TBS, lyophilised probe); SDS-PAGE with Coomassie, intact ESI-MS, tryptic LC-MS/MS; both purified.

Assay [2] addresses AviTag-OAZ(K153A,V198A)-GSY-SPM (human | Neisseria meningitidis serogroup B (strain MC58)) (UniProt P54368). The description is as above.

B1: His6-ODC-Ctag (human Ornithine Decarboxylase) (enzyme, UniProt P11926 2-421)
chain: NNFGNEEFDCHFLDEGFTAKDILDQKINEVSSSDDKDAFYVADLGDILKKHLRWLKALPRVTPFYAVKCNDSKAIVKTLAATGTGFDCASKTEIQLVQSLGVPPERIIYANPCKQVSQIKYAANNGVQMMTFDSEVELMKVARAHPKAKLVLRIATDDSKAVCRLSVKFGATLRTSRLLLERAKELNIDVVGVSFHVGSGCTDPETFVQAISDARCVFDMGAEVGFSMYLLDIGGGFPGSEDVKLKFEEITGVINPALDKYFPSDSGVRIIAEPGRYYVASAFTLAVNIIAKKIVLKEQTGSDDEDESSEQTFMYYVNDGVYGSFNCILYDHAHVKPLLQKRPKPDEKYYSSSIWGPTCDGLDRIVERCDLPEMHVGDWMLFENMGAYTVAAASTFNGFQRPTIYYVMSGPAWQLMQQFQ
B1: the binding result in assay [1] and in assay [2] was “binds” each time.
